{
  "source": "patent US20070202188A1",
  "about": "“Use of alkene carboxlic acid n alkylamides as flavouring agents” (priority 2003, published 2007)",
  "key": {"group of 6-8 testers": {"test_system": "group of 6-8 testers", "test": "Sensorial evaluation (tasting of sugar solution by a group of testers)", "format": "in vivo", "settings": "c=10 ppm in 11% strength sugar solution, approx. 5 ml swallowed", "protocol": "The substance to be tasted (see below) was dissolved in ethanol and the ethanolic solution was then diluted with 11% strength sugar solution (final concentration: c). For tasting, in each case approx. 5 ml of the sugar solution was swallowed. If the threshold value of the substance was known, a value just above the threshold value was chosen for the tasting. A group of 6-8 testers tasted the solutions."}, "oral cavity": {"test_system": "oral cavity", "settings": "in vivo; cited from earlier work"}},
  "note": "At least one compound was matched to its structure with a doubt left.",
  "data": [
    {"smiles": "CCCCCCC/C=C/C(=O)NCC(C)C", "note": "[Example 1, 2E-decenoic acid N-isobutylamide]", "values": [
      {"measurement": "sensorial profile", "setting": "group of 6-8 testers", "result": "slightly piquant, anaesthetizing, heat sensation, saliva-promoting; slightly hereby, citrus-like, tingling, ginger-like"},
      {"measurement": "sensorial effect described in the literature", "setting": "oral cavity", "result": "does not impart a piquant impression"}
    ]}
  ]
}
